# Data as given in the supplement of paper PMC4807443.
# Structures can show the parent of a compound that is named as a salt. Some of the results follow. The numbers are fractions of the control, whatever unit the source prints. Most entries show no effect beyond the scatter of the controls.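 MIN6, a mouse insulinoma beta-cell line, stably carries a lentiviral reporter where Pdx1 and Ins1 promoters each drive a nuclear fluorescent protein; Hoechst staining and automated imaging counted cells. Drugs were candidate hits if Ins1 promoter readout exceeded two median absolute deviations from DMSO controls while Pdx1 activity stayed near normal.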
# Test system: MIN6
# Assay: % Pdx1+ Ins1-low (RFP-only, immature) cells relative to DMSO control (fold of DMSO control); higher = more immature Pdx1+/Ins1-low cells
# Conditions: 8.5 µM; 48 h; glucose 5 mM
row,Compound,% Pdx1+ Ins1-low
1,Cc1cc2c(cc1S(N)(=O)=O)S(=O)(=O)CCC2 [Meticrane],0.95
2,CC1(C)S[C@@H]2[C@H](NC(=O)[C@H](NC(=O)N3CCNC3=O)c3ccccc3)C(=O)N2[C@H]1C(=O)O [Azlocillin sodium salt],0.823
3,COC(=O)Nc1nc2cc(C(=O)c3ccccc3)ccc2[nH]1 [Mebendazole],0.639
4,CC(CCc1ccccc1)NCC(O)c1ccc(O)c(C(N)=O)c1 (centres undefined) [Labetalol hydrochloride],0.623
5,COc1ccc(C(Cl)=C(c2ccc(OC)cc2)c2ccc(OC)cc2)cc1 [Chlorotrianisene],1.14
6,Cc1oncc1C(=O)Nc1ccc(C(F)(F)F)cc1 [Leflunomide],0.791
7,O=C(O)c1cccnc1Nc1cccc(C(F)(F)F)c1 [Niflumic acid],0.626
8,C[N+](C)(C)CCCCCC[N+](C)(C)C [Hexamethonium dibromide dihydrate],0.879
9,CC[N+](C)(C)Cc1ccccc1Br [Bretylium tosylate],0.988
10,CN(C)/N=N/c1[nH]cnc1C(N)=O [Dacarbazine],0.803
11,Cc1onc(-c2c(Cl)cccc2Cl)c1C(=O)N[C@@H]1C(=O)N2[C@@H]1SC(C)(C)[C@@H]2C(=O)O [Dicloxacillin sodium salt],1.46
12,CN1C(C)(C)CCCC1(C)C [Pempidine tartrate],0.755
13,N=C(N)c1ccc(OCCCCCOc2ccc(C(=N)N)cc2)cc1 [Pentamidine isethionate],0.918
14,CC(=O)Nc1cc2ccccc2oc1=O [3-Acetamidocoumarin],1.22
15,Fc1ccc(C(c2ccc(F)cc2)N2CCN(C/C=C/c3ccccc3)CC2)cc1 [Flunarizine dihydrochloride],1.03
16,CN[C@@H]1[C@H](O[C@H]2[C@H](O[C@H]3[C@H](O)[C@@H](O)[C@H](N=C(N)N)[C@@H](O)[C@@H]3N=C(N)N)O[C@@H](C)[C@]2(O)C=O)O[C@@H](CO)[C@H](O)[C@H]1O [Streptomycin sulfate],1
17,CC1(C)S[C@@H]2[C@H](NC(=O)[C@H](N)c3ccc(O)cc3)C(=O)N2[C@H]1C(=O)O [Amoxicillin],1.2
18,COc1cccc2c1C(=O)c1c(O)c3c(c(O)c1C2=O)C[C@@](O)(C(=O)CO)C[C@@H]3O[C@H]1C[C@H](N)[C@H](O)[C@H](C)O1 [Doxorubicin hydrochloride],2.13
19,C[C@]12CCC(=O)C=C1CC[C@@H]1[C@@H]2[C@@H](O)C[C@@]2(C)[C@H]1CC[C@]2(O)C(=O)CO [Hydrocortisone base],0.973

# Ordered by molar mass (ascending): some entries from above
row,Compound,% Pdx1+ Ins1-low
9,CC[N+](C)(C)Cc1ccccc1Br [Bretylium tosylate],0.988
7,O=C(O)c1cccnc1Nc1cccc(C(F)(F)F)c1 [Niflumic acid],0.626
4,CC(CCc1ccccc1)NCC(O)c1ccc(O)c(C(N)=O)c1 (centres undefined) [Labetalol hydrochloride],0.623
19,C[C@]12CCC(=O)C=C1CC[C@@H]1[C@@H]2[C@@H](O)C[C@@]2(C)[C@H]1CC[C@]2(O)C(=O)CO [Hydrocortisone base],0.973
